PubChem BioAssay AID1159584, Peter MacCallum Cancer Centre | 2016

Assay: 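Knock-downs that harm CDH1-null cells more than parental MCF10A cells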 (primary screen)
System: human MCF10A breast epithelial cells, parental and CDH1-null
Knock-down reagent: siRNA against human genes
Measurement: 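Cell viability by CellTiter-Glo ATP luminescence, each line scaled to the mean of mock wells across plates, then CDH1-null over parental ratio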
Direction: CDH1-null / parental viability ratio: higher = CDH1-null cells survive relatively better than parental; CDH1-null viability vs mock: higher = more viable CDH1-null cells
Shown is an unselected part of about 18,000 reagents tested. Not all columns of the deposit are shown. Not stated in the record: the amount of reagent, the time to read-out.

The opening 3 records, ahead of the listing:
CDH1-null / parental viability ratio | CDH1-null viability vs mock (fraction of mock) | target
0.92 | 0.55 | EFNB1
1.04 | 0.71 | IGFL2
1.04 | 0.96 | TFB1M

Results, from the start:
CDH1-null / parental viability ratio | CDH1-null viability vs mock (fraction of mock) | target
0.92 | 0.55 | EFNB1
1.04 | 0.71 | IGFL2
1.04 | 0.96 | TFB1M
0.99 | 1.08 | NAV3
0.89 | 0.94 | AMPD3
1.27 | 0.84 | NOP56
1.28 | 0.69 | SLCO5A1
1 | 0.88 | MSRB3
1.15 | 0.84 | TMEM109
0.93 | 0.86 | DGKH
1.04 | 1.04 | ADAMTSL3
1.22 | 0.9 | SYN3
0.79 | 0.49 | IL22
0.81 | 0.66 | HDGFL2
1.24 | 0.92 | NKX3-1
0.65 | 0.44 | POU3F2
0.84 | 0.64 | CNP
1.2 | 0.77 | PSEN2
1.01 | 0.93 | CYP20A1
0.98 | 0.84 | PLXND1
0.68 | 0.52 | SPESP1
1.14 | 1.14 | CRLS1
0.74 | 0.57 | CSNK1E
1.07 | 0.89 | GLIPR1
1.24 | 0.42 | RPL10
0.76 | 0.32 | CYTH1
1.01 | 0.82 | DCAF17
1.19 | 0.94 | LTA4H
